Measured values reported in paper PMC9581539.
These are yes or no findings as the source states them, for the method shown. In cells and extracts the contact can be indirect. Some results given as binding are weak or reduced against the parent protein; the word gives no strength.

The chains behind the UniProt entries cited, without tags or fusion partners. Residues count along the entry.
UniProt P50552, residues 1-113: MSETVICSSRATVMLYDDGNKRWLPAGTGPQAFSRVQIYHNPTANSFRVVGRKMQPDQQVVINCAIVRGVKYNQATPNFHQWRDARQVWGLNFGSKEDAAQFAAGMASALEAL
UniProt Q8BH43: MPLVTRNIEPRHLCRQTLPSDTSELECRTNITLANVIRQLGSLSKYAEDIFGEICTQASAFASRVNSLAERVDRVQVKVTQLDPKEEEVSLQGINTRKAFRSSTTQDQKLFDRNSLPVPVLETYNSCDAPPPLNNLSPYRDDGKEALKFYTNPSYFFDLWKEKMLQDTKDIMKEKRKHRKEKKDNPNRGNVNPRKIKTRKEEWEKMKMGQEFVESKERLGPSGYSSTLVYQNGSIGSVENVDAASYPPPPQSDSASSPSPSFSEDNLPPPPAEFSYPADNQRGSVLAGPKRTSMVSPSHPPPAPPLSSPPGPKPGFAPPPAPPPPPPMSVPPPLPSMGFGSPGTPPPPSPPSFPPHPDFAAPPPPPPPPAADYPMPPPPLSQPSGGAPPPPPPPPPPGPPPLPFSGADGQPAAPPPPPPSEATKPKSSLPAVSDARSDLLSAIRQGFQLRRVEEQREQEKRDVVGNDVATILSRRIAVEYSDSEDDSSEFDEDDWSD
UniProt O08808: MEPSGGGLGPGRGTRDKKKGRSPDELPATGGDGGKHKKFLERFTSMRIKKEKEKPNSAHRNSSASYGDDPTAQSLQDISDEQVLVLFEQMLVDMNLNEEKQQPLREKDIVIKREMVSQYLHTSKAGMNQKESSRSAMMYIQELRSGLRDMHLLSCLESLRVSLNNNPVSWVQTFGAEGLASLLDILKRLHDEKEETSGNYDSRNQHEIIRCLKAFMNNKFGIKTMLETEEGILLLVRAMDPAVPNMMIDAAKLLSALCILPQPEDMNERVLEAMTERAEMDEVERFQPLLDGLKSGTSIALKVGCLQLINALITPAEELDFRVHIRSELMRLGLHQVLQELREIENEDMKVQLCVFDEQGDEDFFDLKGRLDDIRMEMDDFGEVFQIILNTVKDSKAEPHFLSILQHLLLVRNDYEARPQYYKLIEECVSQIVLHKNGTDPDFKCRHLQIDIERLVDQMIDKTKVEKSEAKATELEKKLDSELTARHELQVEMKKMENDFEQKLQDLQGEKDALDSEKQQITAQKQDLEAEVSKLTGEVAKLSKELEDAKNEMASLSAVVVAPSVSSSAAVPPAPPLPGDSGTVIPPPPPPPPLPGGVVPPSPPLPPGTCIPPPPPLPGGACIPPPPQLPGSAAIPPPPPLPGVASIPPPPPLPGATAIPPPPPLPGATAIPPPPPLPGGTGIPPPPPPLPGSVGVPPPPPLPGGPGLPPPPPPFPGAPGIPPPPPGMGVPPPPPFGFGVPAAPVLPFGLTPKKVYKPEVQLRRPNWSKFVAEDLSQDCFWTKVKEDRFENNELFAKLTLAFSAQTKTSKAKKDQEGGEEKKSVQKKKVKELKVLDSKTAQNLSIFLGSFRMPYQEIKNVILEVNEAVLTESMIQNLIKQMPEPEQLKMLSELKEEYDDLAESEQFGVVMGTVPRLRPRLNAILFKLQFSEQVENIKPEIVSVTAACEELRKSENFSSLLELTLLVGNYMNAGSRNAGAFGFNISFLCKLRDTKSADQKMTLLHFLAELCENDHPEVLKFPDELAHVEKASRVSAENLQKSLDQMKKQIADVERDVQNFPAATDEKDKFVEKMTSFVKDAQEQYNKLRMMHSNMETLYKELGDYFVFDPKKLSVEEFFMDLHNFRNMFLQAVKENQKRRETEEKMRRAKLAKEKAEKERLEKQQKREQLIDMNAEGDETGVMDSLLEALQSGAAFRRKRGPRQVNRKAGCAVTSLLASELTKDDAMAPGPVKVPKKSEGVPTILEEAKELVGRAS
UniProt Q8CBW3: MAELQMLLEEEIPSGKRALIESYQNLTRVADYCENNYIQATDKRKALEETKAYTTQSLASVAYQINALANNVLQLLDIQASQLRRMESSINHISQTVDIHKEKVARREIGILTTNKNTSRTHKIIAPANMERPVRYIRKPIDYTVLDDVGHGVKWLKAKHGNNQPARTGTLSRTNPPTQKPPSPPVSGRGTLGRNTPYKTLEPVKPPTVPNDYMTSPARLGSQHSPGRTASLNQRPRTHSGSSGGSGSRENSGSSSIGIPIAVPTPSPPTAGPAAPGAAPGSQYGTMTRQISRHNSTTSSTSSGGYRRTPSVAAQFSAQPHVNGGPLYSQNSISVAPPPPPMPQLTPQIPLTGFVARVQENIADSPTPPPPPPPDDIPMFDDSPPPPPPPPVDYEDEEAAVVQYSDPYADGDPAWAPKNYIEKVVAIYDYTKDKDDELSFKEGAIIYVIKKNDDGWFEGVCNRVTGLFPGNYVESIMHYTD

Target: GST-tagged VASP-EVH1 domain (UniProt P50552)
Experiment: pull-down; GST-VASP-EVH1 (GST as control) on GST-bind resin beads incubated with lysates of immature or mature DCs in RIPA buffer, with or without the EVH1-specific inhibitor ProM; eluates by SDS-PAGE and immunoblotting; only the target purified

binding | Substance
binds | Wave2/Scar2/Wasf2 (from UniProt Q8BH43 1-497)
binds | mDia1/Diaph1 (from UniProt O08808 1-1255)
binds | Abi1 (from UniProt Q8CBW3 1-481)
